Measurements from PMC4022412.
No constants are given. Whether binding was seen depends on the method and setting. In cells and extracts the contact can be indirect. Here binding means that the protein was enriched with, or labelled near, the bait; the list need not be complete.

The chains behind the UniProt entries cited, without tags or fusion partners. A line that says so, or that is headed by a name, gives the form on record, which may keep a tag or linker. Residues count along the entry.
GST-N-SERT (N-terminal domain of the rat serotonin transporter, residues 1 to 85, fused to glutathione S-transferase) (P31652, residues 1-85): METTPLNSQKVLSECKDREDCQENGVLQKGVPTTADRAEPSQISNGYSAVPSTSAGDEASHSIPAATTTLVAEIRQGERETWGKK
UniProt P31652, residues 595-630: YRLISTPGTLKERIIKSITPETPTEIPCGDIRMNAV
UniProt P46460: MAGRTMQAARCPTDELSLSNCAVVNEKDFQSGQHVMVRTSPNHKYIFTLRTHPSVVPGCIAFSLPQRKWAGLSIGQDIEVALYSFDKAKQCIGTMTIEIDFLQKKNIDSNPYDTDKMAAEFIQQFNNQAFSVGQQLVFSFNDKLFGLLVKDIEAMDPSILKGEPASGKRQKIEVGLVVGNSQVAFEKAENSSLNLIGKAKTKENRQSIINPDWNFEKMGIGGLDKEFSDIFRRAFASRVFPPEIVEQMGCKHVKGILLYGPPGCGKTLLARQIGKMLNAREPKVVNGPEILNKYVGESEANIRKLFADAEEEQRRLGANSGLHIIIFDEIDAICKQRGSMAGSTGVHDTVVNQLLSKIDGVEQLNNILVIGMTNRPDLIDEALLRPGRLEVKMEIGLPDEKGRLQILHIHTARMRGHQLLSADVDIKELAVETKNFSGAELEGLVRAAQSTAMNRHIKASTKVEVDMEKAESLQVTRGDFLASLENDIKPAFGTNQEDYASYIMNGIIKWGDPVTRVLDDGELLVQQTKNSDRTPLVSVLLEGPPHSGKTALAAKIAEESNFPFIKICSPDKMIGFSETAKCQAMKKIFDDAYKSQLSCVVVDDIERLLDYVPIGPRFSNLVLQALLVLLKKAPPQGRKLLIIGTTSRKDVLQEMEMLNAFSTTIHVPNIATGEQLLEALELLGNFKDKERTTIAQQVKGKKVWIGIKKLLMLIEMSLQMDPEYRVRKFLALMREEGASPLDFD
UniProt P50516: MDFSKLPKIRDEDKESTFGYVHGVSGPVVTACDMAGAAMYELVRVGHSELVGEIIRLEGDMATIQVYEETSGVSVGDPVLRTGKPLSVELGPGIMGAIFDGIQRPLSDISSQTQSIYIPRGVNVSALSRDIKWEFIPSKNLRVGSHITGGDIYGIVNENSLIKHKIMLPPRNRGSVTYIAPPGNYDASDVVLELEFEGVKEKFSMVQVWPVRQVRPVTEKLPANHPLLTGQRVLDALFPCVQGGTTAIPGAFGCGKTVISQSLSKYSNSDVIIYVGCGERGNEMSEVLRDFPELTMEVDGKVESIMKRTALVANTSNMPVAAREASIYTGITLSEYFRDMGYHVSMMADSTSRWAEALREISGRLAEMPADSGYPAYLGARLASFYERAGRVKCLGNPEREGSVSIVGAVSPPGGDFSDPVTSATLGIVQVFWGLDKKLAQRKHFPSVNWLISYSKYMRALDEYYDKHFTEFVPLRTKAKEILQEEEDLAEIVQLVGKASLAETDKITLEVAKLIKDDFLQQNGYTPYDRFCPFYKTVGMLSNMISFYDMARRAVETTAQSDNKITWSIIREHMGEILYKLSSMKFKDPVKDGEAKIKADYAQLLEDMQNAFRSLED
UniProt Q8CHC4: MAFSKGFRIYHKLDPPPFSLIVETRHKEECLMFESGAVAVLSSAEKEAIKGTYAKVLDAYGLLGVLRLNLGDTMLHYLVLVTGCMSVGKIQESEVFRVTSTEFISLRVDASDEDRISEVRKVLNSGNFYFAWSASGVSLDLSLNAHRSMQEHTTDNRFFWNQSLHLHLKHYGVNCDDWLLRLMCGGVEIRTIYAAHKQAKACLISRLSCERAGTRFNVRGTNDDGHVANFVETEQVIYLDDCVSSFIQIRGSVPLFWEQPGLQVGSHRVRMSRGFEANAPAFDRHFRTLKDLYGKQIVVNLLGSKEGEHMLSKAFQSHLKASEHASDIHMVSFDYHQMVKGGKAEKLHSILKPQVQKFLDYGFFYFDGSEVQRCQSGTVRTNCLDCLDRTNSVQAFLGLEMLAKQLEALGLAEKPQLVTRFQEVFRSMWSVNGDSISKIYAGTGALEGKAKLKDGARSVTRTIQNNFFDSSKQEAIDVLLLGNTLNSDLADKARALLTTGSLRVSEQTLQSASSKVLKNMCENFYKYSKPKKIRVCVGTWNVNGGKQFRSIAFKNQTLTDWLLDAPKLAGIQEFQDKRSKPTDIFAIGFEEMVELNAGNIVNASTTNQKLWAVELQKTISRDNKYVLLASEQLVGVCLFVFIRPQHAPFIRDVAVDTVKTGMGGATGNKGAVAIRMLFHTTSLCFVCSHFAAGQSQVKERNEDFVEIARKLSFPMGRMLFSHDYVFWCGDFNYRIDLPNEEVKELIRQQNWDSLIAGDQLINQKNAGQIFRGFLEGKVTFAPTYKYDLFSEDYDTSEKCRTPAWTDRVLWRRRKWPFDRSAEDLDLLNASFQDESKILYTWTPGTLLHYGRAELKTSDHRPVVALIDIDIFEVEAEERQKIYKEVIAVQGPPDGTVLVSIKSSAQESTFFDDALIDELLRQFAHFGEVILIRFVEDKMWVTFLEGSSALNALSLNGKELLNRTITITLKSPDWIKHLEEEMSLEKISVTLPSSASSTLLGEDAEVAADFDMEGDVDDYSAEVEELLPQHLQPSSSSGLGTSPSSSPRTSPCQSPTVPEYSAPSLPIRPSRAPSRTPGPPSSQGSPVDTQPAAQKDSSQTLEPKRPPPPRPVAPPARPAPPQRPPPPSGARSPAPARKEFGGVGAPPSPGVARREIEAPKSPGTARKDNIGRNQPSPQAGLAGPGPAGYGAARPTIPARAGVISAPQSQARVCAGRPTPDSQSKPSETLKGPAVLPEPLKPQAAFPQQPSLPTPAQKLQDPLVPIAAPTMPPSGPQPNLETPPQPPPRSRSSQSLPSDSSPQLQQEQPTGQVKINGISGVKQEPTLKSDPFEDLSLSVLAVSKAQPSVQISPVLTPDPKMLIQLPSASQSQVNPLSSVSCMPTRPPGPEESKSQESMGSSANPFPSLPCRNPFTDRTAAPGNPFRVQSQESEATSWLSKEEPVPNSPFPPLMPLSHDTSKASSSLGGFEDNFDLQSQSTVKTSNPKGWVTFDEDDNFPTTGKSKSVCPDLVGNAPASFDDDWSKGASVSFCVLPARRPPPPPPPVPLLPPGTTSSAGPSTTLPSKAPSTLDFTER
UniProt P97427: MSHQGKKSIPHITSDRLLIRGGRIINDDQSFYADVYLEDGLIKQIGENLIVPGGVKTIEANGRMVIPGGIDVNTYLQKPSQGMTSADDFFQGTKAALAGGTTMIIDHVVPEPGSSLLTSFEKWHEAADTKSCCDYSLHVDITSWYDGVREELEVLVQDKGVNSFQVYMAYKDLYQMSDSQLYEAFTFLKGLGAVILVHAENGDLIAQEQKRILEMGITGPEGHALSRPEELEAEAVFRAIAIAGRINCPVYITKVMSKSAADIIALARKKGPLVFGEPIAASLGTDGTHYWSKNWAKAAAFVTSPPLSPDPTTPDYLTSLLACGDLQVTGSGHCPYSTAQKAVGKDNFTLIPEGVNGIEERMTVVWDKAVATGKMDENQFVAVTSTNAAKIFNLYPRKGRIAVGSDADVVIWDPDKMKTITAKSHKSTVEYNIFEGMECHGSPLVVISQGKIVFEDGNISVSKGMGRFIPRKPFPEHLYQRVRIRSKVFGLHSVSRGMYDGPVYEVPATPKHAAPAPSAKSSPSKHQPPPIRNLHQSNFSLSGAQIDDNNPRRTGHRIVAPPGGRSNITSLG

B1: Cullin-associated NEDD8-dissociated protein 1 (protein, UniProt Q6ZQ38 1-1230)
chain: MASASYHISNLLEKMTSSDKDFRFMATNDLMTELQKDSIKLDDDSERKVVKMILRLLEDKNGEVQNLAVKCLGPLVSKVKEYQVETIVDTLCTNMLSDKEQLRDISSIGLKTVIGELPPASSGSALAANVCKKITGRLTSAIAKQEDVSVQLEALDIMADMLSRQGGLLVNFHPSILTCLLPQLTSPRLAVRKRTIIALGHLVMSCGNIVFVDLIEHLLSELSKNDSMSTTRTYIQCIAAISRQAGHRIGEYLEKIIPLVVKFCNVDDDELREYCIQAFESFVRRCPKEVYPHVSTIINICLKYLTYDPNYNYDDEDEDENAMDADGGDDDDQGSDDEYSDDDDMSWKVRRAAAKCLDAVVSTRHEMLPEFYKTVSPALIARFKEREENVKADVFHAYLSLLKQTRPVQSWLCDPDAMEQGDTPLTMLQSQVPNIVKALHKQMKEKSVKTRQCCFNMLTELVNVLPGALTQHIPVLVPGIIFSLNDKSSSSNLKIDALSCLYVILCNHSPQVFHPHVQALVPPVVACVGDPFYKITSEALLVTQQLVKVIRPLDQPSSFDATPYIKDLFTCTIKRLKAADIDQEVKERAISCMGQIICNLGDNLGPDLSNTLQIFLERLKNEITRLTTVKALTLIAGSPLKIDLRPVLGEGVPILASFLRKNQRALKLGTLSALDILIKNYSDSLTAAMIDAVLDELPPLISESDMHVSQMAISFLTTLAKVYPSSLSKISGSILNELIGLVRSPLLQGGALSAMLDFFQALVVTGTNNLGYMDLLRMLTGPVYSQSTALTHKQSYYSIAKCVAALTRACPKEGPAVVGQFIQDVKNSRSTDSIRLLALLSLGEVGHHIDLSGQLELKSVILEAFSSPSEEVKSAASYALGSISVGNLPEYLPFVLQEITSQPKRQYLLLHSLKEIISSASVAGLKPYVENIWALLLKHCECAEEGTRNVVAECLGKLTLIDPETLLPRLKGYLISGSSYARSSVVTAVKFTISDHPQPIDPLLKNCIGDFLKTLEDPDLNVRRVALVTFNSAAHNKPSLIRDLLDSVLPHLYNETKVRKELIREVEMGPFKHTVDDGLDIRKAAFECMYTLLDSCLDRLDIFEFLNHVEDGLKDHYDIKMLTFLMLVRLSTLCPSAVLQRLDRLVEPLRATCTTKVKANSVKQEFEKQDELKRSAMRAVAALLTIPEAEKSPLMSEFQSQISSNPELAAIFESIQKDSSSTNLESMDTS
B2: T-complex protein 1 subunit beta (protein, UniProt P80314 1-535)
chain: MASLSLAPVNIFKAGADEERAETARLSSFIGAIAIGDLVKSTLGPKGMDKILLSSGRDAALMVTNDGATILKNIGVDNPAAKVLVDMSRVQDDEVGDGTTSVTVLAAELLREAESLIAKKIHPQTIISGWREATKAAREALLSSAVDHGSDEARFWQDLMNIAGTTLSSKLLTHHKDHFTKLAVEAVLRLKGSGNLEAIHVIKKLGGSLADSYLDEGFLLDKKIGVNQPKRIENAKILIANTGMDTDKIKIFGSRVRVDSTAKVAEIEHAEKEKMKEKVERILKHGINCFINRQLIYNYPEQLFGAAGVMAIEHADFAGVERLALVTGGEIASTFDHPELVKLGSCKLIEEVMIGEDKLIHFSGVALGEACTIVLRGATQQILDEAERSLHDALCVLAQTVKDPRTVYGGGCSEMLMAHAVTQLANRTPGKEAVAMESFAKALRMLPTIIADNAGYDSADLVAQLRAAHSEGHITAGLDMKEGTIGDMAVLGITESFQVKRQVLLSAAEAAEVILRVDNIIKAAPRKRVPDHHPC
B3: 2′,3′-cyclic-nucleotide 3′-phosphodiesterase (protein, UniProt P16330 1-420)
chain: MNTSFTRKSHTFLPKLFFRKMSSSGAKEKPELQFPFLQDEDTVATLHECKTLFILRGLPGSGKSTLARLILEKYHDGTKMVSADAYKIIPGSRADFSEAYKRLDEDLAGYCRRDIRVLVLDDTNHERERLDQLFEMADQYQYQVVLVEPKTAWRLDCAQLKEKNQWQLSADDLKKLKPGLEKDFLPLYFGWFLTKKSSETLRKAGQVFLEELGNHKAFKKELRHFISGDEPKEKLELVSYFGKRPPGVLHCTTKFCDYGKAAGAEEYAQQEVVKRSYGKAFKLSISALFVTPKTAGAQVVLTDQELQLWPSDLDKPSASEGLPPGSRAHVTLGCAADVQPVQTGLDLLDILQQVKGGSQGEAVGELPRGKLYSLGKGRWMLSLTKKMEVKAIFTGYYGKGKPVPIHGSRKGGAMQICTII
B4: Aconitate hydratase, mitochondrial (protein, UniProt Q99KI0 28-780)
chain: QRAKVAMSHFEPSEYIRYDLLEKNINIVRKRLNRPLTLSEKIVYGHLDDPANQEIERGKTYLRLRPDRVAMQDATAQMAMLQFISSGLPKVAVPSTIHCDHLIEAQVGGEKDLRRAKDINQEVYNFLATAGAKYGVGFWRPGSGIIHQIILENYAYPGVLLIGTDSHTPNGGGLGGICIGVGGADAVDVMAGIPWELKCPKVIGVKLTGSLSGWTSPKDVILKVAGILTVKGGTGAIVEYHGPGVDSISCTGMATICNMGAEIGATTSVFPYNHRMKKYLSKTGRTDIANLAEEFKDHLVPDPGCQYDQVIEINLNELKPHINGPFTPDLAHPVADVGTVAEKEGWPLDIRVGLIGSCTNSSYEDMGRSAAVAKQALAHGLKCKSQFTITPGSEQIRATIERDGYAQILRDVGGIVLANACGPCIGQWDRKDIKKGEKNTIVTSYNRNFTGRNDANPETHAFVTSPEIVTALAIAGTLKFNPETDFLTGKDGKKFKLEAPDADELPRSDFDPGQDTYQHPPKDSSGQRVDVSPTSQRLQLLEPFDKWDGKDLEDLQILIKVKGKCTTDHISAAGPWLKFRGHLDNISNNLLIGAINIENGKANSVRNAVTQEFGPVPDTARYYKKHGIRWVVIGDENYGEGSSREHAALEPRHLGGRAIITKSFARIHETNLKKQGLLPLTFADPSDYNKIHPVDKLTIQGLKDFAPGKPLKCVIKHPNGTQETILLNHTFNETQIEWFRAGSALNRMKELQQ

biological target: GST-N-SERT (N-terminal domain of the rat serotonin transporter, residues 1 to 85, fused to glutathione S-transferase) (rat) (UniProt P31652); assay: affinity purification with mass spectrometry; GST-N-SERT or GST-C-SERT on glutathione agarose incubated with mouse brain extract at 4°C for 3 h; washed five times with TBS (50 mM Tris-HCl pH 7.4, 150 mM NaCl, 1 mM EDTA); SDS-PAGE, silver staining, bands excised, LC-MS/MS; negative control: beads without extract; only the target purified

binding	Molecule
binds	N-ethylmaleimide-sensitive factor (Vesicle-fusing ATPase) (from UniProt P46460 1-744)
binds	V-type proton ATPase catalytic subunit A (from UniProt P50516 1-617)
binds	Synaptojanin 1 (from UniProt Q8CHC4 1-1574)
binds	Dihydropyrimidinase-related protein 1 (from UniProt P97427 1-572)
binds	B1
binds	B2
binds	B3
binds	B4

biological target: GST-C-SERT (C-terminal domain of the rat serotonin transporter, residues 595 to 630, fused to glutathione S-transferase) (rat) (UniProt P31652); assay: as above

binding	Molecule
binds	B3
binds	B4
